The values below come from US10064926B2, “Peptides and combination of peptides for use in immunotherapy against hepatocellular carcinoma (HCC) and other cancers” (Immatics biotechnologies GmbH, priority 2014, dated 2018).

The test system of series [1] is tumor samples of other tumor types. The series can be described thus: Over-presentation of peptides on additional tumor types versus normal tissues (LC-MS). On the set-up: species or system human. The conditions noted are these: over-presentation on more than 5% of the measured tumor samples, or presentation on more than 5% with ratio of geometric means tumor vs normal tissues larger than 3.

Series [2] has as its system primary HCC tissue samples. The series can be described thus: Identification and label-free LC-MS relative quantitation of HLA-presented peptides (presentation profiles/scores), HCC versus normal tissues. The arrangement: species or system human; key to PeptidePresentation (presentation score): very highly over-presented on tumors compared to a panel of normal tissues (+++); highly over-presented on tumors compared to a panel of normal tissues (++); over-presented on tumors compared to a panel of normal tissues (+). The conditions noted are these: HCC tumors compared to a panel of normal tissues.

Take “210 (AYPAIRYLL; listed as Homo sapiens) [compound 210]”: the “Additional Entities (additional tumor types on which the peptide was found over-presented)” value in series [1] was “NSCLC, GC”. Besides, in series [2], the “PeptidePresentation (presentation score)” value is on record as “++”.
As to “111 (TVMDIDTSGTFNV; listed as Homo sapiens) [compound 111]”, the “Additional Entities (additional tumor types on which the peptide was found over-presented)” value in series [1] is “SCLC, CRC, CLL, Melanoma, OC, Urinary bladder cancer, Gallbladder Cancer, Bile Duct Cancer, NHL”. In addition, the “PeptidePresentation (presentation score)” value in series [2] is “+”.
Regarding “309 (GLIEIISNA; listed as Homo sapiens) [compound 309]”, the “Other relevant organs/diseases (additional tumor types on which the peptide was found over-presented)” value in series [1] was “Brain”. In addition, the “PeptidePresentation (presentation score)” value in series [2] is “+”.
For the substance “261 (VLFQEALWHV; listed as Homo sapiens) [compound 261]”, in series [1], the “Additional Entities (additional tumor types on which the peptide was found over-presented)” value is on record as “Urinary bladder cancer” and the “Other relevant organs/diseases (additional tumor types on which the peptide was found over-presented)” value is on record as “Colon, Rectum”. Also, the “PeptidePresentation (presentation score)” value in series [2] is recorded as “++”.
For the substance “338 (KLFDSDPITVTV; listed as Homo sapiens) [compound 338]”, the “Other relevant organs/diseases (additional tumor types on which the peptide was found over-presented)” value in series [1] is on record as “Brain”. Also, the “PeptidePresentation (presentation score)” value in series [2] was “+++”.
Regarding “208 (SYNPAENAVLL; listed as Homo sapiens) [compound 208]”, in series [1], the “Additional Entities (additional tumor types on which the peptide was found over-presented)” value is on record as “NSCLC” and the “Other relevant organs/diseases (additional tumor types on which the peptide was found over-presented)” value is reported as “Brain”. The “PeptidePresentation (presentation score)” value in series [2] is reported as “++”.
In the case of “26 (SLLHTIYEV; listed as Homo sapiens) [compound 26]”, in series [1], the “Additional Entities (additional tumor types on which the peptide was found over-presented)” value was “PrC, BRCA, Esophageal Cancer, NHL” and the “Other relevant organs/diseases (additional tumor types on which the peptide was found over-presented)” value is recorded as “Colon, Rectum”. Also, in series [2], the “PeptidePresentation (presentation score)” value was “+++”.
For the substance “96 (SLLEEPNVIRV; listed as Homo sapiens) [compound 96]”, in series [1], the “Additional Entities (additional tumor types on which the peptide was found over-presented)” value is reported as “Melanoma, Gallbladder Cancer, Bile Duct Cancer” and the “Other relevant organs/diseases (additional tumor types on which the peptide was found over-presented)” value is recorded as “Kidney”. Besides, in series [2], the “PeptidePresentation (presentation score)” value is on record as “++”.
For the substance “342 (AMSSKFFLV; listed as Homo sapiens) [compound 342]”, in series [1], the “Additional Entities (additional tumor types on which the peptide was found over-presented)” value was “NSCLC, GC, PrC, BRCA, Melanoma, OC, Esophageal Cancer, Urinary bladder cancer, Uterine Cancer, Gallbladder Cancer, Bile Duct Cancer, PC” and the “Other relevant organs/diseases (additional tumor types on which the peptide was found over-presented)” value was “Brain, Colon, Rectum, Pancreas”. In addition, the “PeptidePresentation (presentation score)” value in series [2] is “+”.
Taken in the same sequence, the figures for “101 (SLWEGGVRGV; listed as Homo sapiens) [compound 101]” were “Melanoma”, “Brain” and “+++”.
On to “313 (LTAPPEALLMV; listed as Homo sapiens) [compound 313]”, for which the “Other relevant organs/diseases (additional tumor types on which the peptide was found over-presented)” value in series [1] was “Kidney, Brain, Colon, Rectum, Pancreas”. Moreover, the “PeptidePresentation (presentation score)” value in series [2] is “+”.
In the case of “24 (SLAEEKLQASV; listed as Homo sapiens) [compound 24]”, the “Additional Entities (additional tumor types on which the peptide was found over-presented)” value in series [1] is listed as “PrC, BRCA, Urinary bladder cancer”. In addition, the “PeptidePresentation (presentation score)” value in series [2] is “+++”.
In the case of “221 (ALCEENMRGV; listed as Homo sapiens) [compound 221]”, in series [1], the “Additional Entities (additional tumor types on which the peptide was found over-presented)” value was “NSCLC, SCLC, MCC, Melanoma” and the “Other relevant organs/diseases (additional tumor types on which the peptide was found over-presented)” value is on record as “Kidney, Brain, Colon, Rectum”. The “PeptidePresentation (presentation score)” value in series [2] is reported as “+”.
Consider “238 (AMPPPPPQGV; listed as Homo sapiens) [compound 238]”, for which, in series [1], the “Additional Entities (additional tumor types on which the peptide was found over-presented)” value is recorded as “NSCLC, SCLC, BRCA, MCC, Melanoma, OC, Esophageal Cancer, Urinary bladder cancer, Gallbladder Cancer, Bile Duct Cancer, NHL” and the “Other relevant organs/diseases (additional tumor types on which the peptide was found over-presented)” value was “Brain, Colon, Rectum”. Besides, the “PeptidePresentation (presentation score)” value in series [2] is reported as “++”.
In the case of “277 (ALLEENSTPQL; listed as Homo sapiens) [compound 277]”, in series [1], the “Additional Entities (additional tumor types on which the peptide was found over-presented)” value is listed as “SCLC, CLL, Melanoma, OC, Esophageal Cancer, Urinary bladder cancer, NHL” and the “Other relevant organs/diseases (additional tumor types on which the peptide was found over-presented)” value is recorded as “Kidney”. The “PeptidePresentation (presentation score)” value in series [2] was “+”.
Regarding “211 (IYIPSYFDF; listed as Homo sapiens) [compound 211]”, the “Additional Entities (additional tumor types on which the peptide was found over-presented)” value in series [1] is listed as “NSCLC, Brain Cancer, GC”. For the same substance, the “PeptidePresentation (presentation score)” value in series [2] is “++”.
Turning to “187 (SYPTFFPRF; listed as Homo sapiens) [compound 187]”, in series [1], the “Additional Entities (additional tumor types on which the peptide was found over-presented)” value was “NSCLC, PrC” and the “Other relevant organs/diseases (additional tumor types on which the peptide was found over-presented)” value is “Kidney, Brain”. The “PeptidePresentation (presentation score)” value in series [2] is given as “+”.
“319 (KLFNEFIQL; listed as Homo sapiens) [compound 319]”: the “Other relevant organs/diseases (additional tumor types on which the peptide was found over-presented)” value in series [1] is on record as “Kidney, Brain, Colon, Rectum”. In series [2], the “PeptidePresentation (presentation score)” value is given as “+”.
As for “332 (AMLAVLHTV; listed as Homo sapiens) [compound 332]”, in series [1], the “Other relevant organs/diseases (additional tumor types on which the peptide was found over-presented)” value was “Brain, Colon, Rectum”. The “PeptidePresentation (presentation score)” value in series [2] is “+”.
With “264 (VMQDPEFLQSV; listed as Homo sapiens) [compound 264]”, the “Additional Entities (additional tumor types on which the peptide was found over-presented)” value in series [1] was “SCLC, CRC, PC, CLL, Melanoma, OC, Esophageal Cancer, Urinary bladder cancer, Gallbladder Cancer, Bile Duct Cancer, NHL”. Further, the “PeptidePresentation (presentation score)” value in series [2] is listed as “++”.
As to “195 (RYAPPPSFSEF; listed as Homo sapiens) [compound 195]”, in series [1], the “Additional Entities (additional tumor types on which the peptide was found over-presented)” value was “NSCLC” and the “Other relevant organs/diseases (additional tumor types on which the peptide was found over-presented)” value was “Brain”. Further, the “PeptidePresentation (presentation score)” value in series [2] is “+++”.
Consider “6 (KLSPTVVGL; listed as Homo sapiens) [compound 6]”, for which, in series [1], the “Additional Entities (additional tumor types on which the peptide was found over-presented)” value is “CLL, OC” and the “Other relevant organs/diseases (additional tumor types on which the peptide was found over-presented)” value was “Colon, Rectum”. Moreover, the “PeptidePresentation (presentation score)” value in series [2] is recorded as “+++”.
Regarding “248 (KLNDLIQRL; listed as Homo sapiens) [compound 248]”, in series [1], the “Additional Entities (additional tumor types on which the peptide was found over-presented)” value is “GC, Uterine Cancer” and the “Other relevant organs/diseases (additional tumor types on which the peptide was found over-presented)” value was “Pancreas”. Further, the “PeptidePresentation (presentation score)” value in series [2] is given as “+”.
In the case of “51 (GLAEELVRA; listed as Homo sapiens) [compound 51]”, the “Other relevant organs/diseases (additional tumor types on which the peptide was found over-presented)” value in series [1] was “Brain”. For the same substance, the “PeptidePresentation (presentation score)” value in series [2] is on record as “+”.
As to “305 (GVLENIFGV; listed as Homo sapiens) [compound 305]”, the “Other relevant organs/diseases (additional tumor types on which the peptide was found over-presented)” value in series [1] is reported as “Kidney, Brain”. Besides, in series [2], the “PeptidePresentation (presentation score)” value is recorded as “+”.
As to “275 (ALIEGAGILL; listed as Homo sapiens) [compound 275]”, in series [1], the “Additional Entities (additional tumor types on which the peptide was found over-presented)” value is on record as “SCLC, MCC, Melanoma, OC, Esophageal Cancer, Urinary bladder cancer, Uterine Cancer, NHL” and the “Other relevant organs/diseases (additional tumor types on which the peptide was found over-presented)” value is “Kidney, Colon, Rectum, Pancreas”. In series [2], the “PeptidePresentation (presentation score)” value is “++”.
As to “345 (SYNPLWLRI; listed as Homo sapiens) [compound 345]”, in series [1], the “Additional Entities (additional tumor types on which the peptide was found over-presented)” value is listed as “NSCLC, RCC, GC” and the “Other relevant organs/diseases (additional tumor types on which the peptide was found over-presented)” value was “Brain”. For the same substance, the “PeptidePresentation (presentation score)” value in series [2] is on record as “+++”.
For “272 (QQLDSKFLEQV; listed as Homo sapiens) [compound 272]”, in series [1], the “Additional Entities (additional tumor types on which the peptide was found over-presented)” value is given as “MCC, OC, NHL” and the “Other relevant organs/diseases (additional tumor types on which the peptide was found over-presented)” value is listed as “Kidney, Brain”. The “PeptidePresentation (presentation score)” value in series [2] is reported as “+”.
Consider “292 (RIPAYFVTV; listed as Homo sapiens) [compound 292]”, for which, in series [1], the “Additional Entities (additional tumor types on which the peptide was found over-presented)” value is given as “GC, BRCA, Melanoma, NHL” and the “Other relevant organs/diseases (additional tumor types on which the peptide was found over-presented)” value is “Kidney”. Besides, in series [2], the “PeptidePresentation (presentation score)” value is recorded as “+”.
For “127 (VLIGSNHSL; listed as Homo sapiens) [compound 127]”, in series [1], the “Additional Entities (additional tumor types on which the peptide was found over-presented)” value is listed as “PC, BRCA, Esophageal Cancer, Urinary bladder cancer, Uterine Cancer, AML” and the “Other relevant organs/diseases (additional tumor types on which the peptide was found over-presented)” value is listed as “Colon, Rectum”. Further, the “PeptidePresentation (presentation score)” value in series [2] is “+”.
Turning to “179 (YIHNILYEV; listed as Homo sapiens) [compound 179]”, in series [1], the “Additional Entities (additional tumor types on which the peptide was found over-presented)” value is “CLL, NHL” and the “Other relevant organs/diseases (additional tumor types on which the peptide was found over-presented)” value is given as “Brain”. Further, the “PeptidePresentation (presentation score)” value in series [2] is “++”.
Consider “173 (SLTSEIHFL; listed as Homo sapiens) [compound 173]”, for which, in series [1], the “Additional Entities (additional tumor types on which the peptide was found over-presented)” value is listed as “Uterine Cancer, NHL” and the “Other relevant organs/diseases (additional tumor types on which the peptide was found over-presented)” value is reported as “CLL”. In addition, the “PeptidePresentation (presentation score)” value in series [2] is on record as “+”.
Turning to “260 (TLMDMRLSQV; listed as Homo sapiens) [compound 260]”, in series [1], the “Additional Entities (additional tumor types on which the peptide was found over-presented)” value is recorded as “SCLC, PrC, CLL, OC, Uterine Cancer, Gallbladder Cancer, Bile Duct Cancer” and the “Other relevant organs/diseases (additional tumor types on which the peptide was found over-presented)” value is given as “Kidney, Brain, Colon, Rectum”. Moreover, the “PeptidePresentation (presentation score)” value in series [2] is “++”.
